According to the supplement of paper PMC10849652:
This is one part of the list.

Protein sequences, listed by entry. Tags and fused reporters are not part of them. Lines headed by an entry give the natural chain unless they say otherwise; changes in a name come on top.
UniProt Q96AA3: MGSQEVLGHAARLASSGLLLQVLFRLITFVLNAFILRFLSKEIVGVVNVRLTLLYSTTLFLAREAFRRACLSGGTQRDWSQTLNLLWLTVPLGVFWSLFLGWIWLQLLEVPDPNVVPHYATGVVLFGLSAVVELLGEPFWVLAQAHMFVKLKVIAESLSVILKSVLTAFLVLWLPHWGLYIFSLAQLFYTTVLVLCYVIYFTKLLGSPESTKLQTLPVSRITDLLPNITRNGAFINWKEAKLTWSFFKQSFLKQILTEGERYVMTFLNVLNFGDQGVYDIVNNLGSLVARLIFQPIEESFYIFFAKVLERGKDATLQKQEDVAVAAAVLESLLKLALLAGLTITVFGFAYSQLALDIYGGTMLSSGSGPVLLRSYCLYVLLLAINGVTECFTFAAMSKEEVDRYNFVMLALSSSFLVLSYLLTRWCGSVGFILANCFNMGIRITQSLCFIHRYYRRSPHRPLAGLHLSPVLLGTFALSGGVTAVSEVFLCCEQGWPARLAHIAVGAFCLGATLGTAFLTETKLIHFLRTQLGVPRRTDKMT
UniProt P62877, whole entry, looked up: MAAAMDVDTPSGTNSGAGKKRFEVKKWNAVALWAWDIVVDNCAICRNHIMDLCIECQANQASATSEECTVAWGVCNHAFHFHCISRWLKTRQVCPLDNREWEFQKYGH
UniProt Q9P0P0: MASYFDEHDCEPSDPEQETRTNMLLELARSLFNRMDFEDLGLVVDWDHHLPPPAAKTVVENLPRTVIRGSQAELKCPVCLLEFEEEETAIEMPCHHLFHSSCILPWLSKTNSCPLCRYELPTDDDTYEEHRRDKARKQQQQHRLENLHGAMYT
UniProt O15258: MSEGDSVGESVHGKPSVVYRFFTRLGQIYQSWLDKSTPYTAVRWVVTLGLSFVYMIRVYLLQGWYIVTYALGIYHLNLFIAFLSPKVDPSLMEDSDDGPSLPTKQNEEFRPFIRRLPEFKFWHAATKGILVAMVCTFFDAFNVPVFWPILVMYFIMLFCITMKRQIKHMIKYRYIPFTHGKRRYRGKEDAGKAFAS
UniProt Q6NUK4: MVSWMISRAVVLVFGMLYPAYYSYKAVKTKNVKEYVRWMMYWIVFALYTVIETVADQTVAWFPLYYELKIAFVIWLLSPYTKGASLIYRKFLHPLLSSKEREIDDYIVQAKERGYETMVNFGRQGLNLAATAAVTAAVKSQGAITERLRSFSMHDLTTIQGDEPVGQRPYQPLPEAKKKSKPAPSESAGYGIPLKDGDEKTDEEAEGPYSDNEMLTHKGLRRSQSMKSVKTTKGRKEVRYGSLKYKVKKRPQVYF
UniProt P40937, whole entry, looked up: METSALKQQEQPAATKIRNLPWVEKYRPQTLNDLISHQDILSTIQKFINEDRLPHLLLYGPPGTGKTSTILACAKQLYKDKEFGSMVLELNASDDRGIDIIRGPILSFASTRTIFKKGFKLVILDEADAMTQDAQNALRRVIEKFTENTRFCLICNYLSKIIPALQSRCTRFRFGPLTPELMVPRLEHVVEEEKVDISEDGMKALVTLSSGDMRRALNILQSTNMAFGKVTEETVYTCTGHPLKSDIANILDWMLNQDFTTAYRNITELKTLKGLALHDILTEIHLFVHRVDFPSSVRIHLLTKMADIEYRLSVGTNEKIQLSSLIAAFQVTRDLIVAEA
UniProt Q9Y2P8: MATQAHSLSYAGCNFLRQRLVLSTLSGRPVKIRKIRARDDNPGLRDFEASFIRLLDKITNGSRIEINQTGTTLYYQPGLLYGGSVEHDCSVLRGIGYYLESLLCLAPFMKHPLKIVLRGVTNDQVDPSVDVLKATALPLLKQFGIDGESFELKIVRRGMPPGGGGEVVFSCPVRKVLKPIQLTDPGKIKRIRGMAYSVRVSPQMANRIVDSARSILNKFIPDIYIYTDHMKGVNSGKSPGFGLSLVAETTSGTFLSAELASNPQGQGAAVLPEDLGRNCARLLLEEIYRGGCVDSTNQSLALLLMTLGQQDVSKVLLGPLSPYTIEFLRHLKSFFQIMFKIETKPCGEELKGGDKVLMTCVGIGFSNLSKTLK
UniProt Q06587: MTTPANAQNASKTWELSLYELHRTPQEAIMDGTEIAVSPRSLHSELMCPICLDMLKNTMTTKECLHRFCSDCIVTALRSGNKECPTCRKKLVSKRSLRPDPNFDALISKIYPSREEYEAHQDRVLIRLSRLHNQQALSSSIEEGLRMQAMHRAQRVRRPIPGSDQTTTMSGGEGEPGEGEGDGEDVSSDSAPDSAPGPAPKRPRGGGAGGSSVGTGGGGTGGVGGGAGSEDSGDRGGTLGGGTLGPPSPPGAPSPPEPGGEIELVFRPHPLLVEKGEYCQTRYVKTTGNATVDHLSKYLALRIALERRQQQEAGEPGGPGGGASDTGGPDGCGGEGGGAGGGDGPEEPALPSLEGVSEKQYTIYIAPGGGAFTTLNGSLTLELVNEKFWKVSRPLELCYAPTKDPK
UniProt Q96D15: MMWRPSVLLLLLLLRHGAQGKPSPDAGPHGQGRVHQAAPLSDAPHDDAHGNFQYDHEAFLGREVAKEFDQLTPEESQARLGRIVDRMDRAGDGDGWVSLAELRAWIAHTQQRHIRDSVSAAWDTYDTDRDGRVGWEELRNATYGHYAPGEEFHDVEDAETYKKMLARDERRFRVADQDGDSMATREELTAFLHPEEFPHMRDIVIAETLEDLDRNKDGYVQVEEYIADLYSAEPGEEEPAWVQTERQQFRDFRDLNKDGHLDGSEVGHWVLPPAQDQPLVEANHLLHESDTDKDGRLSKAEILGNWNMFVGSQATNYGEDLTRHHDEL
UniProt P34096: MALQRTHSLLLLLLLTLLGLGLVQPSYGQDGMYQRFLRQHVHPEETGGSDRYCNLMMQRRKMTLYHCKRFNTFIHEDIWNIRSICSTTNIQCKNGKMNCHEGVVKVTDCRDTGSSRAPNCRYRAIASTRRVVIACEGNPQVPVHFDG
UniProt Q8IUF8: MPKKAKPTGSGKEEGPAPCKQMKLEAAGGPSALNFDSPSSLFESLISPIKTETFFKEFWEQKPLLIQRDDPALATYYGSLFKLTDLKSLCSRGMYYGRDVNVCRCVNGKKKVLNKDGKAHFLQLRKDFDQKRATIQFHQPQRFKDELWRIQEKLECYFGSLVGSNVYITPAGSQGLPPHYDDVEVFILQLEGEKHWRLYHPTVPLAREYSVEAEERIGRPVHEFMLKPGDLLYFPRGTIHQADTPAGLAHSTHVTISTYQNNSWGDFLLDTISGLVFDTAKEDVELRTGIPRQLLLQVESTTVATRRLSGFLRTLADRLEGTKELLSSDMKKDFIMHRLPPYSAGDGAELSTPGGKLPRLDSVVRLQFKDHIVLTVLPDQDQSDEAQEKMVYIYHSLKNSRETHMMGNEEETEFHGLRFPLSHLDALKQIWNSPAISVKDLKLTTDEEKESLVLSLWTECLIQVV
UniProt O15541: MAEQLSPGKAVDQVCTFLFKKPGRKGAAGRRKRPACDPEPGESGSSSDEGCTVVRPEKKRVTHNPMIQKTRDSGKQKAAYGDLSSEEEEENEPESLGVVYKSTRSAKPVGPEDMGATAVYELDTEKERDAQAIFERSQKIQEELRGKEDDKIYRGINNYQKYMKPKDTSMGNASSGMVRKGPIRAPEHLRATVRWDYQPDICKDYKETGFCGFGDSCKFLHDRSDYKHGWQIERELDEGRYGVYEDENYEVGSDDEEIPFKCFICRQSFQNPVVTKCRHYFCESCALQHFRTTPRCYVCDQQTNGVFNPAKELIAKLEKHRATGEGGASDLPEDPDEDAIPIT
UniProt P38159: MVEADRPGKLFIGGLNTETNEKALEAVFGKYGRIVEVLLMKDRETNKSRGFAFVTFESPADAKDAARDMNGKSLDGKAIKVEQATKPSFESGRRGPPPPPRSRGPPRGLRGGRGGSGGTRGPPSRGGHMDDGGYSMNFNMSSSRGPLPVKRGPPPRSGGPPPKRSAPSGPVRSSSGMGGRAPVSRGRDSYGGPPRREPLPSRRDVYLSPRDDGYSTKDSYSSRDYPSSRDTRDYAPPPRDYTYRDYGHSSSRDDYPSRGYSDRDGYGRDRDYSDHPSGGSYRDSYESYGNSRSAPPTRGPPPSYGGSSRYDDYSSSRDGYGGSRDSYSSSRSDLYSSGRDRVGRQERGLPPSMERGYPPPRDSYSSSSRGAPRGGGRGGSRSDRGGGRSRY
UniProt Q9BQY4: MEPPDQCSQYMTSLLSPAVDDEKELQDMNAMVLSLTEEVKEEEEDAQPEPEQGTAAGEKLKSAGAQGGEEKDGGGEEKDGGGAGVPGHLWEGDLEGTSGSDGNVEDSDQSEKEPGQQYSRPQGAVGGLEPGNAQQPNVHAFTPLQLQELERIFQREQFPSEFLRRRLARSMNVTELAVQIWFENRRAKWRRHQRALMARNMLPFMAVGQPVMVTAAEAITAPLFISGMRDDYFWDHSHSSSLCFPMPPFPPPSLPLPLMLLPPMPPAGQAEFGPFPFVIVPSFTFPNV
UniProt P35250, whole entry, looked up: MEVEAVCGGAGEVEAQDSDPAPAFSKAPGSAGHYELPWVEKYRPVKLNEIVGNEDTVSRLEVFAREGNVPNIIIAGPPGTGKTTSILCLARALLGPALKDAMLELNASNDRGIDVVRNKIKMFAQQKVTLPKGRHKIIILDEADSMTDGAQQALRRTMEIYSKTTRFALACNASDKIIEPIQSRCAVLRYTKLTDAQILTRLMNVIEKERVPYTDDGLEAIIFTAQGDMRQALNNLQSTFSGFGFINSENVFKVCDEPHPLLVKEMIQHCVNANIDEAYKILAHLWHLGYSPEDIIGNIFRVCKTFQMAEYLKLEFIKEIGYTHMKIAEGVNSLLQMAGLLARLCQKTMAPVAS
UniProt Q00765: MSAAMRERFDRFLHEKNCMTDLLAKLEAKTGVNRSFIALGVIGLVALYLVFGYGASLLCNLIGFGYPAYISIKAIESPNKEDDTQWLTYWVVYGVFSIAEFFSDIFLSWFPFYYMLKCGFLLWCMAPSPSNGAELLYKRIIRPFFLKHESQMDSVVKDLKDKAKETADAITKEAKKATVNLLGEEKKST
UniProt Q99496: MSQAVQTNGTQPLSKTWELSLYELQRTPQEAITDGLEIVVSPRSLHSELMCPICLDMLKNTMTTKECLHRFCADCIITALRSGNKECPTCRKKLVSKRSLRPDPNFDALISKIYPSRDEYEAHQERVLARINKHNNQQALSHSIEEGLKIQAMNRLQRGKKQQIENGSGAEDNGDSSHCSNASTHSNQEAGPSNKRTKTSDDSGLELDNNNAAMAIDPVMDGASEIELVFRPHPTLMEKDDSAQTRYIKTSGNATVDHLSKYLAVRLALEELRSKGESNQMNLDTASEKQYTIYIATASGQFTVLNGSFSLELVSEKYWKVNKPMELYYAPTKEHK
UniProt O00287: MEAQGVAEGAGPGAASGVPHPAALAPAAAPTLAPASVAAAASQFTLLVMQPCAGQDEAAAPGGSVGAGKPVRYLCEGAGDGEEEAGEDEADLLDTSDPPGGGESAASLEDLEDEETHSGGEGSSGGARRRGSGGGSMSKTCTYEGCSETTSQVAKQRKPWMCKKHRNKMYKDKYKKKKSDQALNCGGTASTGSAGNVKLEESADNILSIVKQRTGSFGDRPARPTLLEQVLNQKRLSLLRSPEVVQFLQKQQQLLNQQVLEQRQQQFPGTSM
UniProt O43567: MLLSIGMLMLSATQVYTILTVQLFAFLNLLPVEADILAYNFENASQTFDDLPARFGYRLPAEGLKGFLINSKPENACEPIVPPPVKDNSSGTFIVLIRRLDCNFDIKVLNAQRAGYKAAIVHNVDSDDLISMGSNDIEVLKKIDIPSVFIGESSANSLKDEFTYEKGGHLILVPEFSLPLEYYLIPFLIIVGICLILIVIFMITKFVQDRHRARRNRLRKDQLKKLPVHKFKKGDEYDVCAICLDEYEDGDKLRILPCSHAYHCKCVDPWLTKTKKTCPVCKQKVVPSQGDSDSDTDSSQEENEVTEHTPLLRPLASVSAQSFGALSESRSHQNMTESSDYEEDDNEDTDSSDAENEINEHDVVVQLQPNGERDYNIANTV
UniProt Q96HR9: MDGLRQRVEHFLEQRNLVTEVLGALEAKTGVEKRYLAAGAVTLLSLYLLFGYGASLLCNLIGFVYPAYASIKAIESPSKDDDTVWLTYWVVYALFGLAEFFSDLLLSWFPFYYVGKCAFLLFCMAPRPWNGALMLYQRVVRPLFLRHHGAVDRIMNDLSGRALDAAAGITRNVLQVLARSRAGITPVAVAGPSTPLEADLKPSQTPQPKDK
UniProt Q9P258, whole entry, looked up: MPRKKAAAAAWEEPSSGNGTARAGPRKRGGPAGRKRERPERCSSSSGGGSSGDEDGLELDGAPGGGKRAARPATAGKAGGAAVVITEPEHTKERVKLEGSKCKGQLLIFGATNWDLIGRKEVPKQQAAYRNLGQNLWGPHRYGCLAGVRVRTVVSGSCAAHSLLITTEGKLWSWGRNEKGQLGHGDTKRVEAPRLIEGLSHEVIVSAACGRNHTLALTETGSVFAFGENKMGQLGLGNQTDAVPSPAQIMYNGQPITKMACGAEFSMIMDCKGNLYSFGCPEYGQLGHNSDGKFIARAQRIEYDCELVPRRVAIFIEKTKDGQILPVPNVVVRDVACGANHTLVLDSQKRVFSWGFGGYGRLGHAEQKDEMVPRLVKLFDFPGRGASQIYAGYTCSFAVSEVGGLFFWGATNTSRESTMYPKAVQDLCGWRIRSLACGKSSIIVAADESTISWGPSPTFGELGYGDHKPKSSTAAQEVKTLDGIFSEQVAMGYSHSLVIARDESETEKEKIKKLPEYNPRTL

Experiments:
Test in all cases: log2 fold change, soluble protein after heating vs DMSO (PISA); higher = thermal stabilisation; K562 cells, 10 uM, 30 min; active = over 0.2 and 3.5 SD of the protein, either way, in both replicates (recomputed)
[1] = compound: CS(=O)(=O)c1ccc(-c2cnc(N)c(C(=O)Nc3ccccc3)n2)cc1
Summary of the method: (§1)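 Soluble protein was quantified by TMTpro 16plex LC-MS/MS after channel sums were equalised. It was obtained as the supernatant after 21,000xg for 90 min from pooled aliquots of K562 cells (2×10^6 cells/mL, 10 μM compound, 30 min) heated for 3 min across 48°C-58°C and extracted in PBS with 0.5% NP-40 at 4°C. Thermal stability values are relative to control samples and come from duplicates. They are given as log2 fold changes.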

[2] = compound: C[C@@H](Oc1cc(-c2cnn(C3CCNCC3)c2)cnc1N)c1c(Cl)ccc(F)c1Cl [crizotinib]
Summary of the method: as §1

[3] = compound: C[C@@H]1COCCN1C2=NC(=NC(=C2)C3(CC3)S(=O)(=O)C)C4=C5C=CNC5=CC=C4
Summary of the method: as §1

[4] = compound: C[C@H](C1=CC=C(C=C1)C(=O)NC2=C3C=CNC3=NC=C2)N
Summary of the method: as §1

[5] = compound: C[C@H](Nc1ncnc2nc[nH]c12)c1cc2cccc(Cl)c2c(=O)n1-c1ccccc1 [duvelisib]
Summary of the method: as §1

[6] = compound: Cc1cc(Nc2cc(CN3CCOCC3)c3nc(C)c(Cc4ccc(Cl)cc4F)n3n2)n[nH]1 [gandotinib]
Summary of the method: as §1

[7] = compound: Cc1cc(Nc2cc(N3CCN(C)CC3)nc(Sc3ccc(NC(=O)C4CC4)cc3)n2)n[nH]1 [tozasertib]
Summary of the method: as §1

[8] = compound: Cc1cc(SCc2sc(-c3ccc(C(F)(F)F)cc3)nc2C)ccc1OCC(=O)O
Summary of the method: as §1

[9] = compound: Cc1ccc(-n2nc(C(C)(C)C)cc2NC(=O)Nc2ccc(OCCN3CCOCC3)c3ccccc23)cc1 [doramapimod]
Summary of the method: as §1

[10] = compound: Cc1ccc(C(=O)N(CCCN)[C@@H](c2nc3cc(Cl)ccc3c(=O)n2Cc2ccccc2)C(C)C)cc1 [ispinesib]
Summary of the method: as §1

Measured: log2 fold change

RFT1 (UniProt Q96AA3)
inactive: [1] 0.027 | [2] 0.039 | [3] 0.103 | [4] -0.086 | [5] -0.017 | [6] 0.025 | [7] -0.036 | [8] -0.066 | [9] 0.024 | [10] -0.003

REXO2 (UniProt Q9Y3B8)
inactive: [1] -0.009 | [2] 0.029 | [3] 0.039 | [4] -0.074 | [5] 0.024 | [6] 0.005 | [7] -0.006 | [8] -0.067 | [9] -0.058 | [10] 0.009

RBX1 (UniProt P62877)
inactive: [1] -0.004 | [2] 0.057 | [3] 0.096 | [4] -0.091 | [5] 0.115 | [6] -0.105 | [7] -0.011 | [8] -0.053 | [9] -0.017 | [10] 0.006

RIOK1 (UniProt Q9BRS2)
inactive: [1] 0.018 | [2] 0.027 | [3] -0.025 | [4] 0.091 | [5] 0.013 | [6] 0.026 | [7] -0.008 | [8] -0.035 | [9] 0.016 | [10] -0.001

RC3H1 (UniProt Q5TC82)
inactive: [1] -0.11 | [2] -0.065 | [3] -0.023 | [4] 0.106 | [5] 0.051 | [6] -0.162 | [7] 0.044 | [8] 0.009 | [9] -0.022

RNF181 (UniProt Q9P0P0)
inactive: [1] -0.023 | [2] 0.048 | [3] 0.093 | [4] 0.027 | [5] 0.048 | [6] 0.005 | [7] 0 | [8] -0.07 | [9] 0.025 | [10] -0.001

RER1 (UniProt O15258)
inactive: [1] 0.034 | [2] 0.039 | [3] -0.005 | [4] -0.069 | [5] 0.027 | [6] -0.175 | [7] -0.008 | [8] 0.027 | [9] -0.026 | [10] -0.013

Two successive entries from above, for reference:
RC3H1 (UniProt Q5TC82)
inactive: [1] -0.11 | [2] -0.065 | [3] -0.023 | [4] 0.106 | [5] 0.051 | [6] -0.162 | [7] 0.044 | [8] 0.009 | [9] -0.022

RNF181 (UniProt Q9P0P0)
inactive: [1] -0.023 | [2] 0.048 | [3] 0.093 | [4] 0.027 | [5] 0.048 | [6] 0.005 | [7] 0 | [8] -0.07 | [9] 0.025 | [10] -0.001

The results go on:

RHOT2 (UniProt Q8IXI1)
inactive: [1] 0.054 | [2] -0.021 | [3] 0.173 | [4] 0.042 | [5] 0.02 | [6] -0.095 | [7] 0.012 | [8] 0.094 | [9] 0.042 | [10] -0.123

REEP3 (UniProt Q6NUK4)
inactive: [1] 0.026 | [2] -0.239 | [3] -0.125 | [4] -0.009 | [5] 0.081 | [6] 0.052 | [7] -0.108 | [8] 0.025 | [9] 0.048 | [10] -0.302

RFX1 (UniProt P22670)
inactive: [1] 0.017 | [2] 0.061 | [3] 0.039 | [4] -0.007 | [5] 0.073 | [6] 0.006 | [7] 0.038 | [8] 0.065 | [9] 0.035 | [10] 0.019

RFC5 (UniProt P40937)
inactive: [1] -0.001 | [2] -0.068 | [3] 0.065 | [4] -0.072 | [5] -0.004 | [6] -0.024 | [7] -0.019 | [8] 0.011 | [9] -0.017 | [10] -0.065

RCL1 (UniProt Q9Y2P8)
inactive: [1] 0.018 | [2] -0.082 | [3] -0.289 | [4] 0.462 | [5] -0.088 | [6] 0.141 | [7] 0.064 | [8] 0.061 | [9] 0.142 | [10] -0.183

RING1 (UniProt Q06587)
inactive: [1] -0.038 | [2] -0.098 | [3] 0.28 | [4] -0.157 | [6] -0.03 | [7] 0.078 | [9] 0.01 | [10] -0.032

RCN3 (UniProt Q96D15)
inactive: [1] -0.016 | [2] -0.028 | [3] -0.02 | [4] -0.041 | [6] 0.029 | [8] -0.058 | [9] 0.092 | [10] -0.033

RNASE4 (UniProt P34096)
inactive: [1] -0.075 | [2] 0.067 | [3] -0.301 | [4] -0.182 | [6] -0.259 | [7] 0.051 | [9] -0.157 | [10] -0.045

RIOX2 (UniProt Q8IUF8)
inactive: [1] 0.07 | [2] -0.197 | [3] -0.044 | [4] 0.117 | [5] -0.115 | [6] 0.114 | [7] 0.02 | [8] 0.103 | [9] 0.003 | [10] 0.1

RNF113A (UniProt O15541)
inactive: [1] 0.019 | [2] 0.027 | [3] -0.025 | [4] -0.024 | [5] -0.004 | [6] 0.019 | [7] -0.045 | [8] -0.038 | [9] -0.044 | [10] -0.007

RBM38 (UniProt Q9H0Z9)
inactive: [1] -0.03 | [2] 0.213 | [3] 0.152 | [4] -0.193 | [5] 0.012 | [6] 0.061 | [7] 0.031 | [8] 0.051 | [9] -0.095 | [10] 0.022

RBMX (UniProt P38159)
inactive: [1] -0.153 | [2] 0.072 | [3] -0.435 | [4] 0.272 | [5] -0.069 | [6] 0.18 | [7] 0.096 | [8] 0.048 | [9] 0.045 | [10] -0.104

RCC1L (UniProt Q96I51)
inactive: [1] -0.014 | [2] 0.009 | [3] 0.009 | [4] -0.018 | [5] 0.003 | [6] -0.003 | [7] 0 | [8] 0.015 | [9] 0.011 | [10] 0.021

RDH10 (UniProt Q8IZV5)
inactive: [1] -0.016 | [2] 0.087 | [3] 0.116 | [4] -0.011 | [6] -0.111 | [8] -0.003 | [9] -0.016 | [10] 0.036

RHOXF2 (UniProt Q9BQY4)
inactive: [1] 0.027 | [2] 0.001 | [3] 0.073 | [4] 0.018 | [6] -0.045 | [8] -0.092 | [9] 0.008 | [10] 0.009

RFFL (UniProt Q8WZ73)
inactive: [1] 0.03 | [2] 0.069 | [3] 0.1 | [4] -0.033 | [5] -0.031 | [7] -0.133 | [8] 0.2 | [9] -0.053 | [10] 0.002

RFC2 (UniProt P35250)
inactive: [1] 0.009 | [2] -0.021 | [3] 0.034 | [4] -0.019 | [5] 0.053 | [6] -0.064 | [7] -0.027 | [8] 0.014 | [9] -0.005 | [10] -0.02

REEP5 (UniProt Q00765)
inactive: [1] 0.037 | [2] 0.155 | [3] 0.006 | [4] -0.037 | [5] 0.002 | [6] 0.171 | [7] -0.037 | [8] -0.004 | [9] -0.087 | [10] -0.126

RNF2 (UniProt Q99496)
inactive: [1] 0.008 | [2] -0.028 | [3] -0.013 | [4] -0.105 | [6] -0.091 | [8] 0.073 | [9] -0.093

RFXAP (UniProt O00287)
inactive: [1] 0.182 | [2] 0.02 | [3] -0.057 | [4] -0.012 | [5] -0.021 | [7] -0.018 | [8] -0.058 | [9] -0.01 | [10] -0.036

RMC1 (UniProt Q96DM3)
active: [2] -0.509 | [10] -0.254
inactive: [1] 0.021 | [3] 0.061 | [4] -0.012 | [6] 0.027 | [8] 0.066 | [9] 0.038

RBM42 (UniProt Q9BTD8)
inactive: [1] -0.024 | [2] 0.052 | [3] -0.267 | [4] 0.181 | [5] -0.128 | [6] 0.025 | [7] 0.028 | [8] 0.038 | [9] 0.041 | [10] 0.088

RNF13 (UniProt O43567)
inactive: [1] 0.063 | [2] -0.192 | [3] -0.021 | [4] 0.087 | [5] -0.053 | [7] 0.038 | [8] 0.015 | [9] 0.083

REEP6 (UniProt Q96HR9)
inactive: [1] -0.026 | [2] 0.139 | [3] -0.037 | [4] -0.175 | [5] 0.125 | [6] 0.059 | [7] -0.082 | [8] -0.053 | [9] -0.012 | [10] 0.226

RCC2 (UniProt Q9P258)
inactive: [1] 0.03 | [2] 0.046 | [3] 0.078 | [4] -0.025 | [5] 0.038 | [6] -0.039 | [7] -0.019 | [8] 0 | [9] -0.015 | [10] 0.059
